Measurements published in PMC4721152.
No constants are given. Whether binding was seen depends on the method and setting. Some results given as binding are weak or reduced against the parent protein; the word gives no strength.

Chains of the proteins cited; added tags and fusions are not shown. Lines headed by an entry give the natural chain unless they say otherwise; changes in a name come on top. A line that says so, or that is headed by a name, gives the form on record, which may keep a tag or linker. Residues count along the entry.
UniProt P19338: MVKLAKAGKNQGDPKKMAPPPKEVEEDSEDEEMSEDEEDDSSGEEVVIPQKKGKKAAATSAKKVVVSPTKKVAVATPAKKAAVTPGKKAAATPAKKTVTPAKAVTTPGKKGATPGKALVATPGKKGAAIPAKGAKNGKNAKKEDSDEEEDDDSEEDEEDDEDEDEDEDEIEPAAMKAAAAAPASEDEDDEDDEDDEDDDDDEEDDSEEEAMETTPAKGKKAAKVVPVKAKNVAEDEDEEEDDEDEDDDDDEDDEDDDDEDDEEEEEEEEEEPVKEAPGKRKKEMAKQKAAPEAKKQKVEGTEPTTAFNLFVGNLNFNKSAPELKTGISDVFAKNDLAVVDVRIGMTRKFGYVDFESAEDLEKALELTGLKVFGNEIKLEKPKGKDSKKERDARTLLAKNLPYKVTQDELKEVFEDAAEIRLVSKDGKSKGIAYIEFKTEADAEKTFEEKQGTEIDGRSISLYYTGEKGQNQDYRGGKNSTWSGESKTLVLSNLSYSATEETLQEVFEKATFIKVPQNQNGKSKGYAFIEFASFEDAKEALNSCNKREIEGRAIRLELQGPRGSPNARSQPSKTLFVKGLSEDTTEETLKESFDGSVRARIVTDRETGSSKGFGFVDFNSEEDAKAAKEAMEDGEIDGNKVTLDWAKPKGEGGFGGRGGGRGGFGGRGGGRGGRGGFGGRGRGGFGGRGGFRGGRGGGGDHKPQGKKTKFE
mono-PEGylated endostatin (P39060, residues 1572-1754): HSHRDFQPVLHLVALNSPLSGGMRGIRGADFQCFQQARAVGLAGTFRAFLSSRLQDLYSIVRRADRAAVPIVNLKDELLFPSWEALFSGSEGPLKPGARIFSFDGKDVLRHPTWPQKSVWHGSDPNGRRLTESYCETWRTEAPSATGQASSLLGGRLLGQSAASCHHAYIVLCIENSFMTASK
zinc-binding protein-endostatin (P39060, form named): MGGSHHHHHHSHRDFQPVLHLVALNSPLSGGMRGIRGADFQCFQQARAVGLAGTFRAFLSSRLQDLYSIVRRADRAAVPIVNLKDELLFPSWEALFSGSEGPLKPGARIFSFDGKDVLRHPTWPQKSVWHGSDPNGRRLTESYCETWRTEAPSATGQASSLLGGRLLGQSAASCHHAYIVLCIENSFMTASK

Molecular target: nucleolin-turbo green fluorescent protein (UniProt P19338)
Experiment: pull-down; nucleolin-tGFP immunoprecipitated from transfected HMECs with anti-tGFP antibody and Protein G beads; the beads incubated with 0.5 μg ES variant for 1 h at 4 °C; washed with lysis buffer (150 mmol/L Tris, 50 mmol/L sodium chloride, 1% NP40, pH 7.4); bead-bound proteins detected by Western blotting; both purified

binding | Substance
binds | endostatin (from UniProt P39060 1572-1754) (domain or fragment)
binds | mono-PEGylated endostatin (from UniProt P39060 1572-1754) (domain or fragment)
binds | mono-PEGylated zinc-binding protein-endostatin (from UniProt P39060 1572-1754) (domain or fragment)
binds | zinc-binding protein-endostatin (from UniProt P39060 1572-1754) (domain or fragment)
